Measurements: patent US20260248969A1, “PEPTIDE MULTIMER PRODUCTS AND METHODS” (REGENTS OF THE UNIVERSITY OF MICHIGAN, priority 2023, published 2026)
No constants are given. Whether binding was seen depends on the method and setting. Some binding calls cover weakened binding; strength is not graded here.

Chains of the proteins cited; added tags and fusions are not shown. Residues count along the entry.
UniProt P16070, residues 21-742: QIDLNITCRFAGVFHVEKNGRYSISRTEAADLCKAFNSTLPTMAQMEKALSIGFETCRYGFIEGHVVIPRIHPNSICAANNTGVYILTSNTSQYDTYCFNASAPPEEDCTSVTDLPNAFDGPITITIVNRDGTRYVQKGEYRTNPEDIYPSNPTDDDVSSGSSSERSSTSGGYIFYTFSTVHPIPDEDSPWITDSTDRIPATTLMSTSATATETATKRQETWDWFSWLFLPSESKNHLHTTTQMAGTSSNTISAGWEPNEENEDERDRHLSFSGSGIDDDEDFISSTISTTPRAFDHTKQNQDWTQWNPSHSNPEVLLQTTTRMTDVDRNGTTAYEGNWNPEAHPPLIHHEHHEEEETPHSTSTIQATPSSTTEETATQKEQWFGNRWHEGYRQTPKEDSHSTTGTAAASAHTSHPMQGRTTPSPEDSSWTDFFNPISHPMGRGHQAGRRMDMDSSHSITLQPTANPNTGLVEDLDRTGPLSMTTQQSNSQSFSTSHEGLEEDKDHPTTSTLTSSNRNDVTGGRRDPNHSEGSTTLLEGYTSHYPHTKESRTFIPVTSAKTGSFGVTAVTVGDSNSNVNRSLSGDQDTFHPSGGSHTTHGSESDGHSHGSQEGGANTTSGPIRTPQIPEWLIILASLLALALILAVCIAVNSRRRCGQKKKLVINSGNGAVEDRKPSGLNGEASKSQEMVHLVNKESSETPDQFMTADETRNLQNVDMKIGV

Biological target: T1, CD44 (cluster of differentiation 44) (human, UniProt P16070 21-742)
T1 construct: whole, on cells; Endogenous target on human HCC cells and tissues; no recombinant protein was used
Assay: fluorescence microscopy, 5 uM on CCA-156 cells

B1: WKG*-Cy5.5 (Cy5.5-labeled CD44 peptide monomer, …) (peptide)
peptide: WKGWSYLWTQQA
modifications: Cy5.5 label; site of attachment and any linker not stated
binding: binds
